Reference: paper PMC9724427
These are yes or no findings as the source states them, for the method shown. In cells and extracts the contact can be indirect. Some results given as binding are weak or reduced against the parent protein; the word gives no strength.

Sequences of proteins named here, by UniProt entry; tags and fusion partners are left off.
UniProt P35222: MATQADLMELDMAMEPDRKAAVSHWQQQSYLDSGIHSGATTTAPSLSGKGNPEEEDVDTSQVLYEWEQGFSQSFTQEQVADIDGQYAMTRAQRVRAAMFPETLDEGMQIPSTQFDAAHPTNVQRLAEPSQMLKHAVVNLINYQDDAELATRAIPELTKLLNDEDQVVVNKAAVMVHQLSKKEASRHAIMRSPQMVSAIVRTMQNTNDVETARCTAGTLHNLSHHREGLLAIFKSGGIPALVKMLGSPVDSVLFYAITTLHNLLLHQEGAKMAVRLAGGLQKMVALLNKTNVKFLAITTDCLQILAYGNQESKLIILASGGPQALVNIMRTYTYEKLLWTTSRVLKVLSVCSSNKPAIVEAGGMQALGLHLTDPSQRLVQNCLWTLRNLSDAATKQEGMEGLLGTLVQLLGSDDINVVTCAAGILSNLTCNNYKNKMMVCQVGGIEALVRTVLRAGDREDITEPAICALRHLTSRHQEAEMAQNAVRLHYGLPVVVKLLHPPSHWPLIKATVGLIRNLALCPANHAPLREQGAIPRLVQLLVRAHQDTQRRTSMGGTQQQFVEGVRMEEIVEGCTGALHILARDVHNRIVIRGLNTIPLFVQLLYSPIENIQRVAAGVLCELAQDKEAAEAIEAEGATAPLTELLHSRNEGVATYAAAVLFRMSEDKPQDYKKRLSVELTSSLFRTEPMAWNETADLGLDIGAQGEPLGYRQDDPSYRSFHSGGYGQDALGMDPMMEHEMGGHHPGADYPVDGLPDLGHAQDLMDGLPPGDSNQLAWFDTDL

Target: T1, Discoidin domain-containing receptor 2 (human (endogenous in hepatoma cells)) (UniProt Q16832)
T1 sequence: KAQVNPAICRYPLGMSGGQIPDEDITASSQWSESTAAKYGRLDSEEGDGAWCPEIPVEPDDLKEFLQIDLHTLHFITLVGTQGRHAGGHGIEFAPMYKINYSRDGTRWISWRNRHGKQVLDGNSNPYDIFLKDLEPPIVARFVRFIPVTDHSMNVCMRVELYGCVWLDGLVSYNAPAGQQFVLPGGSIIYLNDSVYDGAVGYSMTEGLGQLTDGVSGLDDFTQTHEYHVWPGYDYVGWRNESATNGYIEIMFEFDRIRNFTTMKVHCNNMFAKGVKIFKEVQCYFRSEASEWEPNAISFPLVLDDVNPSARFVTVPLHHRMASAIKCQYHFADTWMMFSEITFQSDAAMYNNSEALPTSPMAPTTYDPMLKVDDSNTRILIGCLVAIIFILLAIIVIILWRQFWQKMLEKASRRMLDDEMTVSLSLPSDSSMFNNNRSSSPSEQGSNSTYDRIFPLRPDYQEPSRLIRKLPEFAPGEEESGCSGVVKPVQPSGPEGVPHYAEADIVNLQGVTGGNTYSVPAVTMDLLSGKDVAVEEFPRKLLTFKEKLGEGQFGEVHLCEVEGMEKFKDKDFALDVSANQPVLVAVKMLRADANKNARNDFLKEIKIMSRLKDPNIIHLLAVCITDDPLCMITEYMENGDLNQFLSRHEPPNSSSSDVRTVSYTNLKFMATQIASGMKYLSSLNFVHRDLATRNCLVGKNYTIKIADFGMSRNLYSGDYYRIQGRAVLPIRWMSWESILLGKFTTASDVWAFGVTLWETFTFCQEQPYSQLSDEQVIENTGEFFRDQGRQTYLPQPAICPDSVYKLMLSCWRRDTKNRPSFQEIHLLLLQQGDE
Test: co-IP; Pierce Crosslink Magnetic IP/Co-IP Kit; protein A/G magnetic beads pre-bound to an antibody against DDR2, incubated with cell lysates at 4 °C overnight, low-pH elution, western blot; cells with CEBPA-DT silencing or overexpression

binding: binds
Substance: β-catenin (from UniProt P35222 1-781)
